# Measured values reported in PubChem BioAssay AID1671190 (National Center for Advancing Translational Sciences (NCATS), 2021).
# Amino acid sequences for entries named in this document (tags omitted). A change or cut given only in a name is not applied to a line headed by its entry.
# UniProt P18054: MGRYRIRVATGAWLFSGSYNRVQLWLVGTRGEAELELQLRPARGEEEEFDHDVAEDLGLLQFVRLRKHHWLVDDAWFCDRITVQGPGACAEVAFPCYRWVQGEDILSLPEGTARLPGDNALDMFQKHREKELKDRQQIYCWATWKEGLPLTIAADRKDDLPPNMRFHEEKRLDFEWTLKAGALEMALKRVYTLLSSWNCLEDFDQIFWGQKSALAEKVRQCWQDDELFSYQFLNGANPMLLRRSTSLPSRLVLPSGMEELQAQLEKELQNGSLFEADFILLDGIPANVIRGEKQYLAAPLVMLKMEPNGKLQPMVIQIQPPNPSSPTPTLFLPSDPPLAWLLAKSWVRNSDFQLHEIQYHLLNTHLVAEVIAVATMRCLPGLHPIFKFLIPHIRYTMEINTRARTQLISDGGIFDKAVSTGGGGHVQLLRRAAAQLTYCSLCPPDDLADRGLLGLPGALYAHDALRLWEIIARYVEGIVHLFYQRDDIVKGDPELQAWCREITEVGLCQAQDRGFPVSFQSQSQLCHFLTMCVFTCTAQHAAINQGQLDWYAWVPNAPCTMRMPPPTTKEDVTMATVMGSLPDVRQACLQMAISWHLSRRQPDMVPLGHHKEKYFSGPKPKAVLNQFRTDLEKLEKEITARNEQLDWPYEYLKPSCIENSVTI
# Screen size: about 580,000 compounds; about 6,100 (1.1%) were called active. Inconclusive results, whose numbers are uncertain, are shown with a selection of clear calls. The call rests on the fitted dose curve; in most records, active means well fitted inhibition curve with a large enough effect; inconclusive means small, poorly fitted or top-dose-only effect, or another doubt; inactive means no such curve, though single readings can be large or run the other way. Potencies beside an inconclusive call are fits to weak or partial responses and may not hold up.
# Molecular target: Polyunsaturated fatty acid lipoxygenase ALOX12 (Homo sapiens) (UniProt P18054)
# Test: Primary qHTS assay for inhibitors of human arachidonate 12S-lipoxygenase (ALOX12): Round 2
# Conditions: purified 12hLO, xylenol orange hydroperoxide absorbance; activity change, negative = inhibition: at 108 µM (top of the series) unless noted
# Description: Assay Provider: Theodore R. Holman Ph.D. University of California, Santa Cruz, California Human lipoxygenase 12hLO is a member of the closely related lipoxygenase family of enzymes which catalyze the site-specific oxidation of arachidonic acid to various hormone precursor molecules and as such is a candidate for drug development in a variety of disease areas, such as cancer and inflammation. Inhibition of 12hLO activity was screened by utilizing arachidonic acid as a substrate. The extent of hydroperoxide product formation was measured by a secondary chromogenic reaction in which xylenol orange (XO, Sigma-Aldrich, cat. number 39,818-7) reacts with the ferric ions produced from the reaction between the hydroperoxide and ferrous ions. The Fe (III)-XO complex is characterized with red-shifted absorbance at 560 nm. A purified preparation of human 12hLO was supplied by Dr. Holman laboratory, University of California, Santa Cruz.
# PROTOCOL TABLE SEQUENCE No. (e.g., 1, 2, 3, etc.); […] (e.g., Cells, Incubation, Reagent, etc.); VALUE; DESCRIPTION 1; Enzyme; 3 uL; 150 nM 12hLO enzyme solution dispensed in 1536-well Greiner black, clear bottom plates. 2; Compound; 23 nL; compounds and controls were added. 3; Incubate; 15 min; room temperature. 4; Substrate; 1 uL; 40 uM arachidonic acid (final concentration). 5; Incubate; 30 min; room temperature. 6; Reagent; 4 uL; Fe-XO solution was added to each well. 7; Incubation; 30 min; room temperature 8; Detector; absorbance; Read 1 at 405 nm absorbance using ViewLux (Perkin-Elmer) CCD imager. 9; Detector; absorbance; Read 2 at 573 nm absorbance using ViewLux (Perkin-Elmer) CCD imager. NOTES (numbers refer to sequence above) 1; 150 nM 12hLO (final concentration) in buffer solution (25 mM Hepes, 0.01% Triton X-100, pH 7.0) was dispensed in columns 1, 2, 5-48. Column 1 is neutral (100% activity). Buffer only was dispensed in columns 3 and 4 as no enzyme negative controls. The plates were covered with metal lids with gas-exchange holes. 2; Compounds were pin transferred via a Kalypsys Pin Tool (Wako USA) in column 5-48. Control compound was transferred in column 2, titration of nordihydroguaiaretic acid (NDGA, Sigma-Aldrich, N5023) with top concentration of 20 mM in DMSO then 1:3 dilution in duplicate. Dilution factor of 23 nL into 4 uL final assay volume. 3; Covered assay plates were incubated for 15 min at room temperature. 4; Substrate was added to start the reaction; 40 uM arachidonic acid (Sigma-Aldrich, St. Louis, MO) was dispensed throughout the plate. 6; Chromogenic detection reagent solution (divalent iron/xylenol orange, Fe-XO) was added to each well: 200 uM xylenol orange, 300 uM ferrous ammonium sulfate prepared freshly in 50 mM sulfuric acid. 8, 9; Two absorbance readouts were obtained at 405 nm and at 573 nm using a ViewLux high-throughput CCD plate imager (Perkin-Elmer). The 573 to 405 (Read 2 / Read 1) absorbance ratio was used to compute reaction progress.
# On the % scale 0 is the no-effect control and ±100 the full control effect; potency means the concentration at half of the fitted maximal effect.
SMILES,Potency,"activity change, negative = inhibition"
Cc1ccnc(NC(=O)c2ccc3c(c2)S(=O)(=O)c2ccccc2C3=O)c1,"inconclusive: 25.1 µM [inhibitor, single point]",
CCCn1nc(C(=O)OC(C)C(=O)NCc2ccc(F)cc2)c2ccccc2c1=O (stereo not given),,inactive: -30.6%
COc1ccccc1NC(=O)CSc1nnc2c3ccccc3n(C(C)C)c2n1,,inactive: 6.63%
CCCCCCCC/C=C\CCCCCCCC(=O)NCCO,inactive,
COc1ccc(/C=C\c2onc(C)c2S(=O)(=O)N2CCC(C(=O)Nc3cccc(Cl)c3)CC2)cc1,,inconclusive: -33.7% [inhibitor]
CCc1ccc(OCC(=O)Nc2c(C)ccc3nsnc23)cc1,,inactive: 16.2%
COc1cc(CNCCc2ccc(S(N)(=O)=O)cc2)ccc1OCc1ccc(Cl)cc1,active: 39.8 µM,
CC(OC(=O)c1cc(Br)c[nH]1)C(=O)c1c[nH]c2ccccc12 (stereo not given),"inconclusive: 44.7 µM [inhibitor, partial curve, poor fit]",
CCOC(=O)N1CCN(CC(=O)Nc2oc3ccccc3c(=O)c2-c2ccc(F)cc2)CC1,,inactive: 11.6%
Cc1cc(F)ccc1OC1CNC1,"inconclusive: 28.2 µM [inhibitor, partial curve, poor fit]",
CC(=O)c1cc2c(cc1NC(=O)CN1CCCCC1C)OCO2 (stereo not given),"inconclusive: 0.316 µM [inhibitor, full curve, poor fit]",
NCC(c1ccc(F)cc1)c1c[nH]c2ccccc12 (stereo not given),"inconclusive: 100 µM [inhibitor, single point]",
CC12CCC(C/C1=N\N=C1\NC(=O)/C(=C\c3ccc(Cl)cc3)S1)C2(C)C (stereo not given),,inactive: -23.4%
Cc1c(Cl)cccc1NC(=S)N1CCCN(Cc2ccc(F)cc2)C1,"inconclusive: 112 µM [inhibitor, single point]",
CCCc1[nH]nc2c1C(Cc1ccccc1)C(C#N)=C(N)O2 (stereo not given),"inconclusive: 112 µM [inhibitor, single point]",
Cc1nc2c(c(=O)c3ccccc3n2C)c(=O)n1C1CCCCCC1,,inactive: -1.1%
CC1(C(=O)NS(=O)(=O)c2cccc(C#N)c2)CCN1C(=O)C1(c2ccc(Cl)cc2)CC1 (stereo not given),"inconclusive: 28.2 µM [inhibitor, single point]",
C[C@H](CO)N1C[C@H](C)[C@@H](CN(C)S(=O)(=O)c2cccs2)OCc2cn(nn2)CCCC1=O,"inconclusive: 7.08 µM [inhibitor, full curve, poor fit]",
COc1cccc(CN(C)C(=O)CSCC(=O)Nc2cccc(C)c2)c1OC,,inactive: 1.81%
COc1cc(OC)c(OC)cc1C=Cc1ccc2ccccc2n1,"inconclusive: 15.8 µM [inhibitor, partial curve]",
CCCNc1c(NC(=O)c2ccc(OC(C)=O)c(OC)c2)c(=O)oc2ccccc12,"inconclusive: 56.2 µM [inhibitor, partial curve, poor fit]",
CC(C)NC(=O)CSc1nc(C2CC2)nc2ccccc12,,inactive: -24.6%
COc1cc(CC(=O)Nc2ccc(S(=O)(=O)Nc3ncccn3)cc2)cc(OC)c1OC,"inconclusive: 44.7 µM [inhibitor, partial curve, poor fit]",
CC(=O)c1ccccc1NC(=O)CSCc1nc2sc(C)c(C)c2c(=O)[nH]1,"inconclusive: 89.1 µM [inhibitor, single point]",

SMILES,Potency,"activity change, negative = inhibition"
CCCNc1c(NS(=O)(=O)c2ccc3[nH]c(=O)oc3c2)c(=O)oc2ccccc12,"inconclusive: 79.4 µM [inhibitor, partial curve, poor fit]",
O=C(CN1CCN(CC(=O)Nc2ccc(F)cc2)CC1)NCCc1c[nH]c2ccccc12,"inconclusive: 126 µM [inhibitor, partial curve, poor fit]",
O=C(NC(=S)Nc1ccc(Oc2ccccc2)cc1)c1ccc(Cl)cc1,"inconclusive: 7.94 µM [inhibitor, full curve]",
COC(=O)c1ccccc1NC(=S)NC(C)=O,"inconclusive: 70.8 µM [inhibitor, partial curve, poor fit]",
COc1cc(-c2cc(-c3ccccc3)nc(SCC(=O)O)c2C#N)cc(OC)c1OC,,inactive: -5.85%
O=C(NCC(c1ccco1)N1CCc2ccccc2C1)c1cccc(Br)c1 (stereo not given),"inconclusive: 39.8 µM [inhibitor, partial curve, poor fit]",
Cc1ccc(S(=O)(=O)Nc2cc(-c3ccccc3)nn2C)cc1Cl,"inconclusive: 56.2 µM [inhibitor, partial curve, poor fit]",
COCCn1c(=O)c(-c2cccc(C#N)c2)nc2cnc(N3CCN(C)CC3)nc21,"inconclusive: 89.1 µM [inhibitor, partial curve, poor fit]",
c1ccc(NN(Cc2ccncc2)c2ccccc2)cc1,"inconclusive: 79.4 µM [inhibitor, partial curve, poor fit]",
Clc1ccc(Cn2ncc3c(NCc4ccco4)ncnc32)c(Cl)c1,"inconclusive: 50.1 µM [inhibitor, single point]",
CCC(C)NC(=O)c1ccc(CNC(=O)C2CCCCC2)cc1 (stereo not given),,inactive: -0.729%
O=[N+]([O-])c1ccc(S(=O)(=O)N2CCN(Cc3ccco3)CC2)cc1,,inactive: 0%
COc1cccc(Nc2c(-c3ccc(O)c(OC)c3)nc3ccc(Cl)cn23)c1,"inconclusive: 100 µM [inhibitor, single point]",
O=C(C(=O)N1CCN(c2ccccc2F)CC1)c1c[nH]c2ccccc12,"inconclusive: 5.01 µM [inhibitor, full curve, poor fit]",
COc1cc2c(cc1OC)CC(=O)NC=C2,,inactive: -7.54%
CC(C)(C)C(=O)/C(C#N)=C\c1cn[nH]c1-c1ccccc1,"inconclusive: 50.1 µM [inhibitor, partial curve, poor fit]",
O=C(N[C@H]1CCN2C(=O)c3cc(Br)ccc3NC(=O)[C@@H]2C1)c1ccco1,,inactive: -8.08% [at 176 µM]
CCCCOc1ccc(CNC(=O)c2cc3n(n2)CCCN(Cc2ccc(C)cc2)C3=O)cc1,,inactive: -0.917%
CC(=O)N(CCC1(Cc2ccccc2)CCOC(C)(C)C1)Cc1ccccc1 (stereo not given),,inactive: -8.63%
Cc1cc(OC(=O)c2ccc(Cl)cc2Cl)c([N+](=O)[O-])c(=O)[nH]1,"inconclusive: 50.1 µM [inhibitor, partial curve, poor fit]",
CCOc1cccc(CNC(=O)C2CCCN(c3cnc4nc(C)c(C)nc4c3)C2)c1 (stereo not given),"inconclusive: 31.6 µM [inhibitor, partial curve]",
OC1(CN2CCN(c3nccs3)CC2)CCCNC1 (stereo not given),"inconclusive: 8.91 µM [inhibitor, full curve]",
Cc1ccc(CCNS(=O)(=O)c2ccc3c(c2)C(C)(C)C(=O)N3C)cc1,,inactive: -5.71%
N#CC(=C(O)COC(=O)CCC1CCCCC1)c1nc2ccccc2[nH]1,,inactive: -2.09%

SMILES,Potency,"activity change, negative = inhibition"
O=C1C(Cl)=C(Nc2cccc(O)c2)C(=O)N1Cc1ccccc1,"inconclusive: 50.1 µM [inhibitor, partial curve, poor fit]",
O=C1NC(=NC2CCCC2)C2(CCN(Cc3cccnc3)C2)N1c1cc(F)cc(F)c1 (stereo not given),,inactive: -0.0981% [at 6.33 µM]
CCCCSCCCNC(=O)c1cn(CC)c2ccc(S(=O)(=O)N3CCCCCC3)cc2c1=O,"inconclusive: 15.8 µM [inhibitor, partial curve, poor fit]",
O=S(=O)(Cc1ccccc1)NCc1ccccn1,"inconclusive: 44.7 µM [inhibitor, single point]",
COCCNC(=O)c1onc(CSc2ccc(C)c(C)c2)c1C(=O)O,"inconclusive: 35.5 µM [inhibitor, single point]",
CN(CC(=O)NC(=O)NC1CCCC1)Cc1ccc(C(=O)NCC(F)(F)F)cc1,,inactive: 3.79%
CCN(C(=O)CSc1n[nH]c(-c2ccc(OC)cc2)n1)c1c(N)n(Cc2ccccc2)c(=O)[nH]c1=O,"inconclusive: 89.1 µM [inhibitor, single point]",
Cc1cccc(C(=O)NCc2nc(C)cs2)n1,,inactive: 15.7%
CCOC(=O)C1=C(C)C(c2ccc(OC)cc2)NC(=S)N1 (stereo not given),,inactive: 0%
O=C(Cc1ccccc1F)Nc1nc(-c2ccc(F)c(F)c2)cs1,"inconclusive: 100 µM [inhibitor, single point]",
N#Cc1ccc(Oc2ccc(C#N)cc2)cc1,,inactive: 27.4%
COc1ccc(C(=O)c2sc(Nc3ccc(Cl)cc3)c(C(N)=O)c2N)cc1,"inconclusive: 50.1 µM [inhibitor, partial curve, poor fit]",
CC(Oc1ccccc1)C(=O)N1CCN=C1SCc1cccc(F)c1 (stereo not given),,inactive: 21.1%
CN(C(=O)c1cccc(CS(C)=O)c1)C1CCC(c2ccccc2)CC1 (stereo not given),,inactive: -3.48%
O=c1[nH]c(CSc2nnc(Nc3ccccc3)s2)nc2ccccc12,,inactive: 14.1%
COC[C@@H]1CN(C(=O)c2cc3ccc(OC)cc3[nH]2)C[C@H]1C(N)=O,,inactive: -6.62%
COC(=O)c1ccc(NC(=S)NC(=O)C2CCC2)cc1,"inconclusive: 35.5 µM [inhibitor, partial curve]",
CN(C)c1ccc(-c2nc(N3CCNCC3)c3ccccc3n2)cc1,"inconclusive: 12.6 µM [inhibitor, full curve, poor fit]",
O=C(CCc1ccccc1)NC1(Cc2ccccc2)CCN(CCCc2ccccc2)C1=O (stereo not given),,inactive: 2.54%
COc1ccc(/C=C2\SC(=O)N(CCCC(=O)Nc3ccc(C(=O)O)cc3)C2=O)cc1,"inconclusive: 100 µM [inhibitor, single point]",
Cc1ccc(N(CC(=O)O)C2SC(=O)NC2=O)cc1 (stereo not given),"inconclusive: 10 µM [inhibitor, partial curve, poor fit]",
CC1(C)C(=O)N(CCOc2ccccc2)[C@H]2CN(Cc3ccc4c(c3)CCO4)C[C@@H]2[S+]1(=O)[O-],"inconclusive: 11.2 µM [inhibitor, partial curve]",

# Molecules from the list above that contain a thiophene ring, fused or not:
SMILES,Potency,"activity change, negative = inhibition"
C[C@H](CO)N1C[C@H](C)[C@@H](CN(C)S(=O)(=O)c2cccs2)OCc2cn(nn2)CCCC1=O,"inconclusive: 7.08 µM [inhibitor, full curve, poor fit]",
CC(=O)c1ccccc1NC(=O)CSCc1nc2sc(C)c(C)c2c(=O)[nH]1,"inconclusive: 89.1 µM [inhibitor, single point]",
COc1ccc(C(=O)c2sc(Nc3ccc(Cl)cc3)c(C(N)=O)c2N)cc1,"inconclusive: 50.1 µM [inhibitor, partial curve, poor fit]",
